# Measured data: PubChem BioAssay AID686938 (Drosophila RNAi Screening Center, 2013)
# Screen: 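Fly genes required for calcium entry once internal stores are emptied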 (primary screen)
# Cells: Drosophila S2R+ cells
# Reagents: long dsRNA against Drosophila genes, about 0.25 µg dsRNA per well, roughly 10,000 cells
# Timing: 5 days of knock-down before the calcium assay
# Treatment: thapsigargin (SERCA pump blocker) to empty calcium stores; entry signal taken 4 min after adding it
# Measured: 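Duplicate raw fluo-4 intensities per well from a plate reader, at rest and four minutes after thapsigargin emptied calcium stores; entry-to-rest ratio filled for only some wells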
# Direction: calcium entry signal: higher = stronger calcium signal after store depletion; entry to resting ratio: higher = more calcium entry relative to resting level; resting calcium signal: higher = higher resting calcium signal
# Rule for the call: 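Called when the plate z-score of the entry-to-rest ratio, mean of duplicates, falls below −3; wells with low overall dye signal (Fmax z below −2) or more than five off-targets excluded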
# Meaning of the calls: active = strongly reduced calcium entry; inactive = no strong reduction
# In all, the deposit lists about 23,000 reagents; shown is an unselected part of those that have a named target and a result. Of all reagents, 75 (0.33%) are marked active. 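Raw plate signals without normalisation; calls rest on plate z-scores that were not deposited; ratio present for only 364 wells.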 A number with no mark means an inactive call. A plus sign joins genes that one reagent is predicted to hit. Not given: the dose of the treatment.
target gene,dsRNA,"calcium entry signal, replicate 1 (fluorescence units)","calcium entry signal, replicate 2 (fluorescence units)",entry to resting ratio,"resting calcium signal, replicate 1 (fluorescence units)","resting calcium signal, replicate 2 (fluorescence units)"
cact,DRSC03501,3.32e7,,,1.90e7,
Agpat2,DRSC03532,4.62e7,,,2.34e7,
CG9877,DRSC04587,4.01e7,4.06e7,,2.03e7,1.81e7
Marcal1,DRSC02718,3.95e7,3.95e7,,1.78e7,1.63e7
GluRIIB,DRSC03335,2.45e7,2.78e7,,1.27e7,1.26e7
CG5910,DRSC11786,2.30e7,4.00e7,,1.11e7,1.58e7
Gpxl,DRSC06538,4.18e7,3.93e7,,1.78e7,1.94e7
Arp8,DRSC20059,4.41e7,4.82e7,,1.98e7,2.27e7
gammaCOP,DRSC16955,1.47e7,1.10e7,1.5,1.01e7,8.03e6
Nf-YB,DRSC02057,4.33e7,4.56e7,,1.92e7,2.24e7
Pgant7,DRSC19991,3.71e7,4.45e7,,1.81e7,1.82e7
mRpL52,DRSC06585,5.74e7,4.75e7,,2.42e7,2.01e7
Rpt4R,DRSC10791,3.15e7,3.98e7,,1.63e7,1.89e7
RpS27A,DRSC03421,1.55e7,1.92e7,,9.80e6,1.17e7
CtsL3,DRSC12171,3.95e7,4.48e7,,1.72e7,2.01e7
Flo1,DRSC07427,2.81e7,2.14e7,,1.17e7,1.13e7
swa,DRSC18842,3.46e7,3.43e7,,1.65e7,1.61e7
Paip1,DRSC07302,4.64e7,4.46e7,,2.40e7,2.45e7
CG42586 + CG31775,DRSC01413,3.39e7,3.91e7,,2.03e7,1.98e7
beat-IIIb,DRSC02435,3.71e7,2.57e7,,1.78e7,1.22e7
CG14435,DRSC17928,3.32e7,4.43e7,,1.82e7,2.21e7
CG14435,DRSC23282,4.35e7,4.75e7,,2.41e7,1.83e7
Cyp28a5,DRSC03297,6.65e7,,,3.05e7,
CG15308,DRSC17995,4.12e7,4.22e7,,1.85e7,1.99e7
Cht9,DRSC04079,3.93e7,,,1.93e7,
CG13575,DRSC04211,3.48e7,4.83e7,,1.83e7,2.18e7
CG13575,DRSC22851,2.04e7,2.94e7,,1.11e7,1.45e7
CG17568,DRSC02628,4.00e7,4.17e7,,2.42e7,2.09e7
repo,DRSC16369,3.34e7,4.63e7,,4.23e7,1.96e7
repo,DRSC23108,4.08e7,3.90e7,,1.82e7,1.65e7
CG12490,DRSC04123,3.84e7,4.43e7,,1.95e7,1.97e7
ImpL1,DRSC11197,4.72e7,3.48e7,,3.00e7,1.56e7
slow,DRSC08589,4.50e7,3.94e7,,3.01e7,1.72e7
slow,DRSC08590,1.68e7,3.01e7,,8.86e6,1.32e7
kst,DRSC08719,5.30e7,3.48e7,,3.31e7,1.44e7
CG7483,DRSC16249,4.12e7,3.41e7,,1.95e7,1.68e7
CG7483,DRSC22432,2.66e7,1.94e7,,1.34e7,8.28e6
CG5543,DRSC04511,2.34e7,,,1.23e7,
CG14565,DRSC11726,3.19e7,5.06e7,,1.54e7,2.32e7
CG31419,DRSC15771,3.36e7,6.01e7,,1.76e7,7.40e7
GstE11,DRSC06926,4.18e7,3.75e7,,1.82e7,1.82e7
Snx21,DRSC00564,4.53e7,,,2.00e7,
CG12522,DRSC09088,3.84e7,4.33e7,,1.85e7,1.99e7
et,DRSC19582,3.92e7,4.00e7,,2.21e7,1.84e7
CG30419,DRSC04208,3.81e7,7.37e7,,2.07e7,3.11e7
CG30419,DRSC04209,3.97e7,6.21e7,,2.05e7,2.85e7
CG30419,DRSC22519,2.54e7,2.37e7,,1.25e7,1.05e7
CG31125,DRSC13684,5.22e7,3.78e7,,2.16e7,1.98e7
CG15753 (retired record),DRSC18982,2.73e7,2.83e7,,1.57e7,1.36e7
CG15753 (retired record),DRSC19503,4.02e7,3.91e7,,1.78e7,1.75e7
CG15753 (retired record),DRSC19716,3.77e7,5.23e7,,1.91e7,2.41e7
CG15753 (retired record),DRSC19717,5.05e7,4.47e7,,2.45e7,2.09e7
CG15753 (retired record),DRSC19718,2.81e7,3.55e7,,1.89e7,2.20e7
CG15753 (retired record),DRSC22985,5.08e7,2.62e7,,2.57e7,1.19e7
fest,DRSC07349,3.55e7,3.83e7,,1.72e7,1.91e7
Klf15,DRSC17742,3.35e7,3.81e7,,1.69e7,1.76e7
CG13984,DRSC02316,3.20e7,3.99e7,,1.57e7,1.85e7
scf,DRSC08735,3.11e7,4.11e7,,1.56e7,1.80e7

Part of the list above in another layout.
GluRIIB [DRSC03335] — calcium entry signal, replicate 1 (fluorescence units): 2.45e7; calcium entry signal, replicate 2 (fluorescence units): 2.78e7; resting calcium signal, replicate 1 (fluorescence units): 1.27e7; resting calcium signal, replicate 2 (fluorescence units): 1.26e7
CG5910 [DRSC11786] — calcium entry signal, replicate 1 (fluorescence units): 2.30e7; calcium entry signal, replicate 2 (fluorescence units): 4.00e7; resting calcium signal, replicate 1 (fluorescence units): 1.11e7; resting calcium signal, replicate 2 (fluorescence units): 1.58e7
Gpxl [DRSC06538] — calcium entry signal, replicate 1 (fluorescence units): 4.18e7; calcium entry signal, replicate 2 (fluorescence units): 3.93e7; resting calcium signal, replicate 1 (fluorescence units): 1.78e7; resting calcium signal, replicate 2 (fluorescence units): 1.94e7
Arp8 [DRSC20059] — calcium entry signal, replicate 1 (fluorescence units): 4.41e7; calcium entry signal, replicate 2 (fluorescence units): 4.82e7; resting calcium signal, replicate 1 (fluorescence units): 1.98e7; resting calcium signal, replicate 2 (fluorescence units): 2.27e7
gammaCOP [DRSC16955] — calcium entry signal, replicate 1 (fluorescence units): 1.47e7; calcium entry signal, replicate 2 (fluorescence units): 1.10e7; entry to resting ratio: 1.5; resting calcium signal, replicate 1 (fluorescence units): 1.01e7; resting calcium signal, replicate 2 (fluorescence units): 8.03e6
Nf-YB [DRSC02057] — calcium entry signal, replicate 1 (fluorescence units): 4.33e7; calcium entry signal, replicate 2 (fluorescence units): 4.56e7; resting calcium signal, replicate 1 (fluorescence units): 1.92e7; resting calcium signal, replicate 2 (fluorescence units): 2.24e7
